Results deposited as PubChem BioAssay AID1259254 (NCATS, 2017)

Screen: 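Genome-wide screen for genes that prevent DNA re-replication in cancer cells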 (primary screen)
Cell system: human HCT116 colorectal cancer cells
Knock-down reagent: single siRNA against human genes
Duration: 3 days
Detection: 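Imaged Hoechst DNA stain sorts each cell into a cycle phase by DNA amount; per plate, G2 fraction set to 0% for non-targeting and 100% for GMNN siRNA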
Scale: G2 robust z-score and G2 cells, % of GMNN control: higher = more G2 cells, more excess DNA replication; raw share of cells in G2: higher = larger share of cells with G2 DNA content
Call rule: 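Active siRNAs have a G2 robust z of 5 or more median absolute deviations over the median, which in these data means about 38% or higher of GMNN control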
This is an unselected part of about 59,000 reagents. About 1,550 of all reagents (2.6%) count as active. 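G2 share is only a proxy for re-replication; each gene was hit by three separate siRNAs, and active genes were retested.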 Raw values vary from plate to plate and are shown uncorrected. The numbers tell different reagents against one gene apart. Not given: the amount of reagent.

gene,reagent no.,G2 robust z-score,"G2 cells, % of GMNN control",raw share of cells in G2 (%),call
PLEKHA4 (pleckstrin homology domain containing A4),1,1.01,10.1,8.31,inactive
PLEKHA4 (pleckstrin homology domain containing A4),2,0.88,9.16,8.84,inactive
PLEKHA4 (pleckstrin homology domain containing A4),3,-0.628,-1.45,2.57,inactive
NBPF11 (NBPF member 11),1,-0.807,-2.71,2.63,inactive
NBPF11 (NBPF member 11),2,-0.586,-1.15,2.57,inactive
NBPF11 (NBPF member 11),3,-0.105,2.23,3.47,inactive
OR5M11 (olfactory receptor family 5 subfamily M member 11),1,-0.285,0.96,3.5,inactive
OR5M11 (olfactory receptor family 5 subfamily M member 11),2,-0.954,-3.75,2.22,inactive
OR5M11 (olfactory receptor family 5 subfamily M member 11),3,-0.738,-2.22,2.37,inactive
DNAJB8 (DnaJ heat shock protein family (Hsp40) member B8),1,-0.0847,2.37,3.91,inactive
DNAJB8 (DnaJ heat shock protein family (Hsp40) member B8),2,0.509,6.55,5.44,inactive
DNAJB8 (DnaJ heat shock protein family (Hsp40) member B8),3,2.93,23.6,11.8,inactive
MAK (male germ cell associated kinase),1,-0.573,-1.07,5.26,inactive
MAK (male germ cell associated kinase),2,1.09,10.6,8.99,inactive
MAK (male germ cell associated kinase),3,-0.932,-3.59,2.76,inactive
TMEM131 (transmembrane protein 131),1,-1.27,-5.94,2.18,inactive
TMEM131 (transmembrane protein 131),2,0.789,8.52,7.63,inactive
TMEM131 (transmembrane protein 131),3,-0.291,0.921,3.62,inactive

Targets above whose target name starts with M or m (3):
gene,reagent no.,G2 robust z-score,"G2 cells, % of GMNN control",raw share of cells in G2 (%),call
MAK (male germ cell associated kinase),1,-0.573,-1.07,5.26,inactive
MAK (male germ cell associated kinase),2,1.09,10.6,8.99,inactive
MAK (male germ cell associated kinase),3,-0.932,-3.59,2.76,inactive

Next entries:
gene,reagent no.,G2 robust z-score,"G2 cells, % of GMNN control",raw share of cells in G2 (%),call
NME6 (NME/NM23 nucleoside diphosphate kinase 6),1,-1.13,-4.95,4.05,inactive
NME6 (NME/NM23 nucleoside diphosphate kinase 6),2,-0.0285,2.77,6.2,inactive
NME6 (NME/NM23 nucleoside diphosphate kinase 6),3,-0.0936,2.31,4.42,inactive
ACTR6 (actin related protein 6),1,3.55,27.9,14.4,inactive
ACTR6 (actin related protein 6),2,2.95,23.7,15.5,inactive
ACTR6 (actin related protein 6),3,0.0258,3.15,5.46,inactive
ENOX2 (ecto-NOX disulfide-thiol exchanger 2),1,0.145,3.98,7.43,inactive
ENOX2 (ecto-NOX disulfide-thiol exchanger 2),2,0.0759,3.5,7.86,inactive
ENOX2 (ecto-NOX disulfide-thiol exchanger 2),3,-0.662,-1.69,3.29,inactive
ICE2 (interactor of little elongation complex ELL subunit 2),1,0.229,4.58,6.34,inactive
ICE2 (interactor of little elongation complex ELL subunit 2),2,-0.71,-2.03,3.42,inactive
ICE2 (interactor of little elongation complex ELL subunit 2),3,-0.85,-3.01,1.55,inactive
